## Library screen at single concentrations

From ChEMBL document CHEMBL3988442, “University of Dundee, Small-Polar-MMV Screening Library” (2021).

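Whole-parasite assay of Trypanosoma brucei over 72 hours; the read-out is not stated. Tested at 30 µM. The record gives no direction; compounds that gave an IC50 in retests scored well above the rest, so higher reads as stronger inhibition. Values scatter widely below zero; nearly all retest evidence comes from the higher of the two concentrations used. Size under these conditions: about 64,000 compounds, about 940 of them at 50% or above in at least one test.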

The filed quantity is “Percent Effect” (%).
The controls that fix the scale are not given in the record; negative values are as filed.
The compounds are a random part of those screened.

SMILES: Cn1nccc1CNC(=O)CCn1nc(C(F)(F)F)c(Cl)c1C1CC1
effect: 3.64%

SMILES: Cc1cccc(CN2CC3(CCN(C(=O)C4CC4)CC3)OCC2=O)n1
effect: -67.75%

SMILES: NC(=O)NC(=O)CCSCc1cc(F)cc2cccnc12
effect: -17.9%

SMILES: Cc1nnsc1CNC(=O)Nc1cccc(N2CCN(C)C2=O)c1
effect: -44.13%

SMILES: Cc1cc(C)c(CNC(=O)N2CCCC2c2cc(C)on2)c(=O)[nH]1 (stereo not given)
effect: 10.56%

SMILES: Cc1ccc(-c2cnnc(NCC3(N4CCOCC4)CCCC3)n2)o1
effect: -51.48%

SMILES: CN1CC2(CCN(C(=O)Cn3ncc4ccccc4c3=O)CC2)OC1=O
effect: -27.16%

SMILES: Cc1nc(Nc2nnc(C)s2)cc(C2CCCN2)n1.Cl (stereo not given)
effect: -18.52%

SMILES: CCC(CC)c1cc(CNC(=O)N2CCCC(N(C)C)C2)on1 (stereo not given)
effect: -10.64%

SMILES: CN(Cc1ccco1)C(=O)Nc1cccnc1N1CCCC1
effect: 18.63%

SMILES: CCO[C@H]1CO[C@@]2(CCCN(S(=O)(=O)c3cccnc3)C2)C1.O=C(O)C(F)(F)F
effect: 23.98%

SMILES: COC1CCN(C(=O)CC2CCCC2)CC(=O)N(C)c2ccccc21 (stereo not given)
effect: -39.26%

SMILES: CCC(CNC(=O)c1ccc(C(N)=O)cc1)Oc1cccc(F)c1 (stereo not given)
effect: -26.98%

SMILES: COCCCNC(=O)CN(C)C(C)c1nc(C)no1 (stereo not given)
effect: -41.69%

SMILES: Cc1nccn1CCC1CCCCN1Cc1ccc(O)cc1Cl (stereo not given)
effect: 3.627%

SMILES: CC(C)(C)C(=O)NCc1nccn1CCc1ccccc1
effect: -14.65%

SMILES: O=C(O)C(F)(F)F.[H][C@@]12COC[C@]1([H])[C@@H](OCC1CCOCC1)CN2Cc1cc(C)c(C)o1
effect: -16.36%

SMILES: CC(C)NC(=O)N1CCN(C(=O)C2CCOCC2)CC2(CNC(=O)C2)C1 (stereo not given)
effect: -14.43%

SMILES: Nc1nc(NCCc2[nH]nc3c2CCCC3)cc(N2CCOCC2)n1
effect: -17.09%

SMILES: Cc1cnn(CC2CCCN2Cc2nnsc2Cl)c1 (stereo not given)
effect: -57.2%

SMILES: COc1cc(CNc2cnn(CCN3CCOCC3)c2)cc(OC)c1
effect: -16.07%

SMILES: Cc1cnn(CCNCCCOc2ccc(C#N)cc2)c1
effect: -90.33%

SMILES: I.c1cc2c(cc1C1(CNC3=NCCN3)CCCC1)OCCO2
effect: -22.99%

SMILES: O=C(c1c[nH]nc1-c1cccc(F)c1)N1CCNC(c2ccccc2)C1 (stereo not given)
effect: -17.36%

SMILES: CC(C)N(C)C(=O)CSCc1ccc(S(=O)(=O)N(C)C)o1
effect: -45.28%

SMILES: Cn1cc(CN2CCCC23CCN(c2nc4ccccc4s2)CC3)cn1
effect: 2.198%

SMILES: Cc1noc(CCCNC(=O)N2CCc3ccccc3C2CO)n1 (stereo not given)
effect: -4.669%

SMILES: Cc1ncnc(NCc2cc3n(n2)CCCN(S(C)(=O)=O)C3)c1C
effect: 23.44%

SMILES: CN1CCc2c(C#N)c(NCCCN3CCOCC3)n3cnnc3c2C1.Cl.Cl
effect: 29.08%

Some entries from above, unchanged:

SMILES,effect
Cc1noc(CCCNC(=O)N2CCc3ccccc3C2CO)n1 (stereo not given),-4.669%
Cc1ccc(-c2cnnc(NCC3(N4CCOCC4)CCCC3)n2)o1,-51.48%